{
  "source": "paper PMC8384837",
  "details_in_all_cases": "yeast three-hybrid, YBZ-1, SC-Leu-His + 0.5 mM 3-AT, 4 days",
  "key": {"[1]": {"biological_target": "T1, PUM1 PUF domain R6-MYR N1043M + Q1047R (UniProt Q14671)", "T1 sequence": "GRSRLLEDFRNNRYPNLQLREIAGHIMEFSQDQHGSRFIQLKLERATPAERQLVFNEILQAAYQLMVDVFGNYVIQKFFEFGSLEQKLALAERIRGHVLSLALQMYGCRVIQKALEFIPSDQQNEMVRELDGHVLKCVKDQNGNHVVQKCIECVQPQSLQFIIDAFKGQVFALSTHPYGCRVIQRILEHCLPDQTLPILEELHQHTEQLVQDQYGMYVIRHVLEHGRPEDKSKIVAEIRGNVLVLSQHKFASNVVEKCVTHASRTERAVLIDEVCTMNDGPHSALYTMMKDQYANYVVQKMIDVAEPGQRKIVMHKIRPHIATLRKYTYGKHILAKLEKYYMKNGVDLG"}, "[2]": {"biological_target": "T2, PUM1 PUF domain R6-NFL Y1044F + Q1047L (UniProt Q14671)", "T2 sequence": "T1 sequence with M216N, Y217F, R220L"}, "[3]": {"biological_target": "T3, PUM1 PUF domain R6-NHR Y1044H + Q1047R (UniProt Q14671)", "T3 sequence": "T1 sequence with M216N, Y217H"}, "[4]": {"biological_target": "T4, PUM1 PUF domain R6-NRI Y1044R + Q1047I (UniProt Q14671)", "T4 sequence": "T1 sequence with M216N, Y217R, R220I"}, "[5]": {"biological_target": "T5, PUM1 PUF domain R6-NRR Y1044R + Q1047R (UniProt Q14671)", "T5 sequence": "T1 sequence with M216N, Y217R"}, "[6]": {"biological_target": "T6, PUM1 PUF domain R6-QHR N1043Q + Y1044H + Q1047R (UniProt Q14671)", "T6 sequence": "T1 sequence with M216Q, Y217H"}, "[7]": {"biological_target": "T7, PUM1 PUF domain R6-QRQ N1043Q + Y1044R (UniProt Q14671)", "T7 sequence": "T1 sequence with M216Q, Y217R, R220Q"}, "[8]": {"biological_target": "T8, PUM1 PUF domain R6-QRR N1043Q + Y1044R + Q1047R (UniProt Q14671)", "T8 sequence": "T1 sequence with M216Q, Y217R"}, "[9]": {"biological_target": "T9, PUM1 PUF domain R6-QWG N1043Q + Y1044W + Q1047G (Homo sapiens) (UniProt Q14671)", "T9 sequence": "T1 sequence with M216Q, Y217W, R220G"}, "[10]": {"biological_target": "T10, PUM1 PUF domain R6-RFA N1043R + Y1044F + Q1047A (UniProt Q14671)", "T10 sequence": "T1 sequence with M216R, Y217F, R220A"}, "[11]": {"biological_target": "T11, PUM1 PUF domain R6-MYL N1043M + Q1047L (Homo sapiens) (UniProt Q14671)", "T11 sequence": "T1 sequence with R220L"}, "[12]": {"biological_target": "T12, PUM1 PUF domain R6-MYS N1043M + Q1047S (Homo sapiens) (UniProt Q14671)", "T12 sequence": "T1 sequence with R220S"}, "[13]": {"biological_target": "T13, PUM1 PUF domain R6-MYV N1043M + Q1047V (Homo sapiens) (UniProt Q14671)", "T13 sequence": "T1 sequence with R220V"}, "[14]": {"biological_target": "T14, PUM1 PUF domain R6-NFC Y1044F + Q1047C (Homo sapiens) (UniProt Q14671)", "T14 sequence": "T1 sequence with M216N, Y217F, R220C"}, "[15]": {"biological_target": "T15, PUM1 PUF domain R6-NYV Q1047V (UniProt Q14671)", "T15 sequence": "T1 sequence with M216N, R220V"}, "[16]": {"biological_target": "T16, PUM1 PUF domain R6-NYW Q1047W (UniProt Q14671)", "T16 sequence": "T1 sequence with M216N, R220W"}, "[17]": {"biological_target": "T17, PUM1 PUF domain R6-QFR N1043Q + Y1044F + Q1047R (Homo sapiens) (UniProt Q14671)", "T17 sequence": "T1 sequence with M216Q, Y217F"}, "[18]": {"biological_target": "T18, PUM1 PUF domain R6-QYV N1043Q + Q1047V (Homo sapiens) (UniProt Q14671)", "T18 sequence": "T1 sequence with M216Q, R220V"}, "[19]": {"biological_target": "T19, PUM1 PUF domain R6-RFG N1043R + Y1044F + Q1047G (Homo sapiens) (UniProt Q14671)", "T19 sequence": "T1 sequence with M216R, Y217F, R220G"}, "[20]": {"biological_target": "T20, PUM1 PUF domain R6-RFI N1043R + Y1044F + Q1047I (Homo sapiens) (UniProt Q14671)", "T20 sequence": "T1 sequence with M216R, Y217F, R220I"}},
  "note": "Where a chain is given by its changes, count along the chain named. The list shows a part of the results. For some assays here: At the low end of the ranking the order means little.",
  "data": [
    {"sequence": "GGCUAGAACUAGUGGAUCCCCCGGCGCCCGGCGGCUCGAGCCCGGGUAAGUGGAAAUAGUCUGCAUGCCGCCGGGCGCCAUGCCUGCAGGUCGACUCUAGAAAACAUG", "values": [
      {"measurement": "binding signal (log2 enrichment (interaction score))", "setting": "[1]", "result": "< -6.77"},
      {"measurement": "binding signal (log2 enrichment (interaction score))", "setting": "[2]", "result": "< -8.03"},
      {"measurement": "binding signal (log2 enrichment (interaction score))", "setting": "[3]", "result": -5.83},
      {"measurement": "binding signal (log2 enrichment (interaction score))", "setting": "[4]", "result": "< -6.86"},
      {"measurement": "binding signal (log2 enrichment (interaction score))", "setting": "[5]", "result": "< -8.01"},
      {"measurement": "binding signal (log2 enrichment (interaction score))", "setting": "[6]", "result": "< -8.99"},
      {"measurement": "binding signal (log2 enrichment (interaction score))", "setting": "[7]", "result": -4.21},
      {"measurement": "binding signal (log2 enrichment (interaction score))", "setting": "[8]", "result": "< -9.43"},
      {"measurement": "binding signal (log2 enrichment (interaction score))", "setting": "[9]", "result": -1.28},
      {"measurement": "binding signal (log2 enrichment (interaction score))", "setting": "[10]", "result": "< -7.39"}
    ]},
    {"sequence": "GGCUAGAACUAGUGGAUCCCCCGGCGCCCGGCGGCUCGAGCCCGGGUAAGUGAAAAUAGUCUGCAUGCCGCCGGGCGCCAUGCCUGCAGGUCGACUCUAGAAAACAUG", "values": [
      {"measurement": "binding signal (log2 enrichment (interaction score))", "setting": "[11]", "result": 0.54},
      {"measurement": "binding signal (log2 enrichment (interaction score))", "setting": "[12]", "result": -2.11},
      {"measurement": "binding signal (log2 enrichment (interaction score))", "setting": "[13]", "result": -3.14},
      {"measurement": "binding signal (log2 enrichment (interaction score))", "setting": "[14]", "result": -1.29},
      {"measurement": "binding signal (log2 enrichment (interaction score))", "setting": "[15]", "result": -5.77},
      {"measurement": "binding signal (log2 enrichment (interaction score))", "setting": "[16]", "result": -3.85},
      {"measurement": "binding signal (log2 enrichment (interaction score))", "setting": "[17]", "result": -1.89},
      {"measurement": "binding signal (log2 enrichment (interaction score))", "setting": "[18]", "result": -5.69},
      {"measurement": "binding signal (log2 enrichment (interaction score))", "setting": "[19]", "result": -0.46},
      {"measurement": "binding signal (log2 enrichment (interaction score))", "setting": "[20]", "result": -0.77}
    ]}
  ]
}
